This is an account of results in publication PMC7957176.

Results are given in words; binding and its absence hold for the method and conditions named. In cells and extracts the contact can be indirect. Binding calls can cover weak binding; strength is not graded here. Where a sequence is shown, tags or fusion partners need not be part of it.

This assay addresses Myc-TRAF domain of USP7 (human). Description: co-IP; cell lysates in RIPA buffer incubated with primary antibody pre-absorbed protein G sepharose beads at 4°C overnight, washed with RIPA buffer, Western blot. (A western blot detects proteins with antibodies after separation by electrophoresis.)

B1: Flag-ARMC5 (protein, UniProt Q96C12 1-935)
chain: MAAAKPTLTDSLSFCLAQLAAAAGEALGGEKDPATNETPLSRALLALRTRHIKAAGGIERFRARGGLRPLLALLRRAAAAGSAPSQAGPGSAPSSAASGASSPAPASGPAPSAVSSSSPTPPVRLRKTLDLALSILADCCTEGACRTEVRRLGGILPLVTILQCMKTDSIQNRTARALGNLAMEPESCGDIHCAGAVPLLVESLTACQDSQCLQSVVRALRNLADSPQHRLALAQQGAVRPLAELLATAPDAALTLALVRALLELSRGCSRACAEQLSLGGGLGPLVSLASHPKRAVREGTILILANLCAQGLIRPALGNAGGVEVLVDELRQRRDPNGASPTSQQPLVRAVCLLCREAINRARLRDAGGLDLLMGLLRDPRASAWHPRIVAALVGFLYDTGALGRLQALGLVPLLAGQLCGEAGEEEEEGREAASWDFPEERTPERAQGGSFRSLRSWLISEGYATGPDDISPDWSPEQCPPEPMEPASPAPTPTSLRAPRTQRTPGRSPAAAIEEPWGREGPALLLLSRFSQAPDPSGALVTGPALYGLLTYVTGAPGPPSPRALRILSRLTCNPACLEAFVRSYGAALLRAWLVLGVAPDDWPAPRARPTLHSRHRELGERLLQNLTVQAESPFGVGALTHLLLSGSPEDRVACALTLPFICRKPSLWRRLLLEQGGLRLLLAALTRPAPHPLFLFFAADSLSCLQDLVSPTVSPAVPQAVPMDLDSPSPCLYEPLLGPAPVPAPDLHFLLDSGLQLPAQRAASATASPFFRALLSGSFAEAQMDLVPLRGLSPGAAWPVLHHLHGCRGCGAALGPVPPPGQPLLGSEAEEALEAAGRFLLPGLEEELEEAVGRIHLGPQGGPESVGEVFRLGRPRLAAHCARWTLGSEQCPRKRGLALVGLVEAAGEEAGPLTEALLAVVMGIELGARVPA
As for B1, the binding result is “binds”.
